Chains of the proteins cited; added tags and fusions are not shown. Lines headed by an entry give the natural chain unless they say otherwise; changes in a name come on top. Residues count along the entry.
UniProt O75116: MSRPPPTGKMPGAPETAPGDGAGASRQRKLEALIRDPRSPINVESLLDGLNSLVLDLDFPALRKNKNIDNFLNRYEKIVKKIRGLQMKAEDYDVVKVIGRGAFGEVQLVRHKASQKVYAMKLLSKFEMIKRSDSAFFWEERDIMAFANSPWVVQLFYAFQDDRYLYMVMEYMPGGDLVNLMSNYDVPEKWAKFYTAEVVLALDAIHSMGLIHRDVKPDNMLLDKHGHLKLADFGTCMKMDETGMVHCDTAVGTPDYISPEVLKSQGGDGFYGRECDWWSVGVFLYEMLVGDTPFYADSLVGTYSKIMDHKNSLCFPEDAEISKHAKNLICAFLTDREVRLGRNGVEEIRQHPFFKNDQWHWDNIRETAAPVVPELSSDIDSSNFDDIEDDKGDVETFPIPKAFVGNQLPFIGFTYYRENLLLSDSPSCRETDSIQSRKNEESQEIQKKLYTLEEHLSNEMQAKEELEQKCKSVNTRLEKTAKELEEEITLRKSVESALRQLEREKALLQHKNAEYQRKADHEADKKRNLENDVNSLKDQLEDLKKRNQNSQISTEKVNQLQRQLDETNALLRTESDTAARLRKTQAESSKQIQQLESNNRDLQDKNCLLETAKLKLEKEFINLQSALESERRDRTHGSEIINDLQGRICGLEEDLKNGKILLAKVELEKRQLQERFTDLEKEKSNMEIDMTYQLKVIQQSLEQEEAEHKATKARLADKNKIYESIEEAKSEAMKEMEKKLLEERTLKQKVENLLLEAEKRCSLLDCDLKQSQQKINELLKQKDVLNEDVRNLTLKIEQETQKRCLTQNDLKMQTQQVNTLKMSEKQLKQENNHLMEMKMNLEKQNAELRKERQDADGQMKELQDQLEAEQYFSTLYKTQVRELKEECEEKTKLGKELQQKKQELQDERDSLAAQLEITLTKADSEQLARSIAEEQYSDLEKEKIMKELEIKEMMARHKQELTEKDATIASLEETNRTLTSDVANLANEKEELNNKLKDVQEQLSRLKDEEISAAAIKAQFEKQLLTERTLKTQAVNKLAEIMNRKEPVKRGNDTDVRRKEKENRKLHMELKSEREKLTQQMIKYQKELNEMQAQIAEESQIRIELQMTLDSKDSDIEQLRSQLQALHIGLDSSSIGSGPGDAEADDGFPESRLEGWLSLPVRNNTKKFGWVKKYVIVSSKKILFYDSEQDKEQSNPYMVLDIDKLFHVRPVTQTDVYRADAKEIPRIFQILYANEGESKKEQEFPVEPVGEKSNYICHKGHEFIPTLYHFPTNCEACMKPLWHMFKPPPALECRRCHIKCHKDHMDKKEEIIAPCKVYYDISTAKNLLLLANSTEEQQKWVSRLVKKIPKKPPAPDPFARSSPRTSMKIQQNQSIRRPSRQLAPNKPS
UniProt Q99683: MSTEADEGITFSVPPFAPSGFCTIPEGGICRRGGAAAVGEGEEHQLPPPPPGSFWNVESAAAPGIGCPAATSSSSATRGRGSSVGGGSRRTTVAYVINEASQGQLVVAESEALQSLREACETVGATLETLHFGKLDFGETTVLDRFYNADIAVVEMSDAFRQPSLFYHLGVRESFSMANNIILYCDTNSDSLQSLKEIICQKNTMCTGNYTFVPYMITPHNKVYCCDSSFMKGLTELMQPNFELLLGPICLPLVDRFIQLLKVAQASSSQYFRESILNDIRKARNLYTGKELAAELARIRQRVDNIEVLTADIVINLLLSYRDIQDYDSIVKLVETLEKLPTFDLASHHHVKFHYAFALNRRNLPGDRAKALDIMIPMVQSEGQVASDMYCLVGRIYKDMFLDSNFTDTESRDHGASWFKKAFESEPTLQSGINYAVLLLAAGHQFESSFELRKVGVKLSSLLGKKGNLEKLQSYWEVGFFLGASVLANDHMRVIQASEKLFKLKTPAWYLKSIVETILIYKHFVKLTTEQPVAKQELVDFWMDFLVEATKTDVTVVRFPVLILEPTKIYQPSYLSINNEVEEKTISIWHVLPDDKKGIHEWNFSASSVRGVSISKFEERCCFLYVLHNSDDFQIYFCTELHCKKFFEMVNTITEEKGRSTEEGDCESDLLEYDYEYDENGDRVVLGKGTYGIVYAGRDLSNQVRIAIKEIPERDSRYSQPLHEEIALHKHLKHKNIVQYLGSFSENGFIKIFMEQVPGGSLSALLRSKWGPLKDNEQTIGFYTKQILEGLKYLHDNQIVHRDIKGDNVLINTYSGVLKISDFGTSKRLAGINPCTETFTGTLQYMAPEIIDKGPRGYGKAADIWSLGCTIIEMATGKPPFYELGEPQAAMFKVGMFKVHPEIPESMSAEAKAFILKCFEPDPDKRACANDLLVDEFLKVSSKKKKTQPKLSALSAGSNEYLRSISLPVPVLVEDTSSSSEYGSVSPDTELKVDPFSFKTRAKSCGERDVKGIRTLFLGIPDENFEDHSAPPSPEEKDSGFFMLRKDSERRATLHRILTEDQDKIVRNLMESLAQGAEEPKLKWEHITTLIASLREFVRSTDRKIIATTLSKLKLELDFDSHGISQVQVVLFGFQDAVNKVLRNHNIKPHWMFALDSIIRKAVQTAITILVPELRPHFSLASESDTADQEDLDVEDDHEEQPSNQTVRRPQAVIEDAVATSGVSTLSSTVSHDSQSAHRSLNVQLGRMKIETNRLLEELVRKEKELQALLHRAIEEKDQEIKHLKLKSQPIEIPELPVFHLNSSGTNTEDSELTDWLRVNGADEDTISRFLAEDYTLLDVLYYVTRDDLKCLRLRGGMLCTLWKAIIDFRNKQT
UniProt Q9Y6M4: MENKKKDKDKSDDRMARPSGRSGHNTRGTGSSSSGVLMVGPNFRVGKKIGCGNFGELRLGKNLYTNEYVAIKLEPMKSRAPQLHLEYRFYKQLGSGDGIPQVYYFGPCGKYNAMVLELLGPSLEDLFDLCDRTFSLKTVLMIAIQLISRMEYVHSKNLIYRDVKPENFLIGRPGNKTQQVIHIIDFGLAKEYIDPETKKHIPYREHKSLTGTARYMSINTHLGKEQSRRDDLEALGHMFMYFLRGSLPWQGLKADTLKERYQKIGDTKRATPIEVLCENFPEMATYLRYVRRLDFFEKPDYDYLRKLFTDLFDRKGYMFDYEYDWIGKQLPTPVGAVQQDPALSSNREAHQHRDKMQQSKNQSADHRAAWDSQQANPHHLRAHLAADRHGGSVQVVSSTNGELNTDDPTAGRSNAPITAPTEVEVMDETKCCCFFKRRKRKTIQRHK
UniProt Q9UQB9: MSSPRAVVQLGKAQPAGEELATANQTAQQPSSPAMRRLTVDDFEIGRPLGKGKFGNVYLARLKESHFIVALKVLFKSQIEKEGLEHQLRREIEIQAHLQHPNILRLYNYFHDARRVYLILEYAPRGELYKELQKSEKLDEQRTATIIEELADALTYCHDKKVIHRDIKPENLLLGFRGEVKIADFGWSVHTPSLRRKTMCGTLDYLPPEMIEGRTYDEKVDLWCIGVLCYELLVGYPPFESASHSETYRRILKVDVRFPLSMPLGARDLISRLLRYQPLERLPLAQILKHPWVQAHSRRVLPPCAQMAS
UniProt O00311: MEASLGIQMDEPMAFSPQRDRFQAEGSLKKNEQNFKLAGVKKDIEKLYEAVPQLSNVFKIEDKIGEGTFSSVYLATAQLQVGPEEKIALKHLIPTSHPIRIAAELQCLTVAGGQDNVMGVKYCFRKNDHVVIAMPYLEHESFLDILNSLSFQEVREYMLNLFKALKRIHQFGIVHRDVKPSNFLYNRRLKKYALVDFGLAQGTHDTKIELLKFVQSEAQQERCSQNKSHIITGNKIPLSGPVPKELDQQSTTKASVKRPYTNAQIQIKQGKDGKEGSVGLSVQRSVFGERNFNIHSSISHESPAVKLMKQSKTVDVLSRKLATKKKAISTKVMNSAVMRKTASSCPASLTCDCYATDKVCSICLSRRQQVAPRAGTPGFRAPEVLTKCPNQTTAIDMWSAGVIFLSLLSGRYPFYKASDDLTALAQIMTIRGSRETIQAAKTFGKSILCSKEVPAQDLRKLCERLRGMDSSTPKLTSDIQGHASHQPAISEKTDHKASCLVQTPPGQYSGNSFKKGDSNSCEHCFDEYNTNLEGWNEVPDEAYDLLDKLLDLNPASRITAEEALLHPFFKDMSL
UniProt Q9UPE1, whole entry: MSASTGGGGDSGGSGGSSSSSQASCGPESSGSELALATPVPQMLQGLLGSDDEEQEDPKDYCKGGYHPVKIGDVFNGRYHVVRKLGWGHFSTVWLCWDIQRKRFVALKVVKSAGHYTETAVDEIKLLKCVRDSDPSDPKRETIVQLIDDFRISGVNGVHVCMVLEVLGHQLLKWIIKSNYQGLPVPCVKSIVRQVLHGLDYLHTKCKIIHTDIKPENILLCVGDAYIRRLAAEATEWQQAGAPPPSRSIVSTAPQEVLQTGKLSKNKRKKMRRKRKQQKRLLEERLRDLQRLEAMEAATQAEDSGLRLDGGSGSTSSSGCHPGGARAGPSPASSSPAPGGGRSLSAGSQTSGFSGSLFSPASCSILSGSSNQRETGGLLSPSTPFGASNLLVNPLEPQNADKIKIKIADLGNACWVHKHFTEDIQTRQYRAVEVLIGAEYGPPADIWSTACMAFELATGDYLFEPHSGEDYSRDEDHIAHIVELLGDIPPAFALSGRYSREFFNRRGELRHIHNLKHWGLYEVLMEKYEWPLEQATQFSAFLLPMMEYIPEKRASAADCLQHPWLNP
UniProt P43250, whole entry: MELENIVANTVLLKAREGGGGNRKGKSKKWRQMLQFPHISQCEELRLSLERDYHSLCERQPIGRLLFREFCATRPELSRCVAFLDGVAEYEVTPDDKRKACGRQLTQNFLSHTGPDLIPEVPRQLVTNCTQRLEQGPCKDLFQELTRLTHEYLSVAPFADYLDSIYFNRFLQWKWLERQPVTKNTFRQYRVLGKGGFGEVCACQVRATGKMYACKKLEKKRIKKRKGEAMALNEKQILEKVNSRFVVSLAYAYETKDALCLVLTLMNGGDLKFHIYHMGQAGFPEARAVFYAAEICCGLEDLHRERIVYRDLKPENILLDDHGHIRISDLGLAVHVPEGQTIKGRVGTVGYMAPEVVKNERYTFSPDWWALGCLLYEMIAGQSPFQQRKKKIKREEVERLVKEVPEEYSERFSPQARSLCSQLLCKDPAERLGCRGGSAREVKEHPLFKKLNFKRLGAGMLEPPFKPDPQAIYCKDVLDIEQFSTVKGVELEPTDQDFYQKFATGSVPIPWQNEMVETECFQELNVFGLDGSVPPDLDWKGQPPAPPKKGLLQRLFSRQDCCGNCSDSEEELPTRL
UniProt P07949, 29-1114: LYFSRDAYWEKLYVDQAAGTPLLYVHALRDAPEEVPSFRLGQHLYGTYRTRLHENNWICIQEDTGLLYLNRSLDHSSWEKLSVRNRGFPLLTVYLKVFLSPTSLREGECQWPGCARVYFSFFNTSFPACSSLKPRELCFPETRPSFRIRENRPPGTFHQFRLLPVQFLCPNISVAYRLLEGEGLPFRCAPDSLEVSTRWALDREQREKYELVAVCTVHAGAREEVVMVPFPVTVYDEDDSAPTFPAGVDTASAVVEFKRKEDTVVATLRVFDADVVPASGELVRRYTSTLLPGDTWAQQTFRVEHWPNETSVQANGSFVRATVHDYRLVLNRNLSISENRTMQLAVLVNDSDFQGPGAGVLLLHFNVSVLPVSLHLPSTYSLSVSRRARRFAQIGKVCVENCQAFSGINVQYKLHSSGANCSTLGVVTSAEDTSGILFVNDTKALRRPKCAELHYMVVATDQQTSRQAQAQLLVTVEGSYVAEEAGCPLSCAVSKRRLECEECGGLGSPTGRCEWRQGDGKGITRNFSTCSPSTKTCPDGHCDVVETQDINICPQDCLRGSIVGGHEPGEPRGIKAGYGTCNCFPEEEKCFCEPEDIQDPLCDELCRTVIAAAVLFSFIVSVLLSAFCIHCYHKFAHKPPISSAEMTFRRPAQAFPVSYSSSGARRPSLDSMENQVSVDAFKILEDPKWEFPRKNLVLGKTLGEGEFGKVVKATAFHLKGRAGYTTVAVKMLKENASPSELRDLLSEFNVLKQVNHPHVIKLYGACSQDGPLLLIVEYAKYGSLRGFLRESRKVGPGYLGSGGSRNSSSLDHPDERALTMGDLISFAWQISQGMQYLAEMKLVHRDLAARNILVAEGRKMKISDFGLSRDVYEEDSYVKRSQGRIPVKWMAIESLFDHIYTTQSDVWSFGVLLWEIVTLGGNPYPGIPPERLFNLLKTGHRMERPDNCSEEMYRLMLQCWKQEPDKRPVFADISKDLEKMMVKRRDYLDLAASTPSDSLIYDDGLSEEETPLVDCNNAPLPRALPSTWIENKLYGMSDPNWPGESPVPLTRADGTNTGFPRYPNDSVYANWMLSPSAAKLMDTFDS

In PMC8213057, “Targeting ALK2: An Open Science Approach to Developing Therapeutics for the Treatment of Diffuse Intrinsic Pontine Glioma” (Journal of Medicinal Chemistry, 2020):

How the values were obtained:
[1] = molecular target: MAPKAPK5/PRAK (Homo sapiens, UniProt Q8IW41); experiment: biochemical; settings: read-out: % enzyme activity, 1 μM; Run 1, Run 2
[2] = molecular target: ROCK2 (Homo sapiens, UniProt O75116); settings: 1 μM; Run 1, Run 2
[3] = molecular target: TSSK2 (Homo sapiens, UniProt Q96PF2); experiment: biochemical; settings: read-out: % enzyme activity, 1 μM; Run 1, Run 2
[4] = molecular target: SIK3 (Homo sapiens, UniProt Q9Y2K2); settings: 1 μM; Run 1, Run 2
[5] = molecular target: EPHA8 (Homo sapiens, UniProt P29322); experiment: biochemical; settings: read-out: % enzyme activity, 1 μM; Run 1, Run 2
[6] = molecular target: CLK2 (Homo sapiens, UniProt P49760); settings: 1 μM; Run 1, Run 2
[7] = molecular target: ASK1/MAP3K5 (Homo sapiens, UniProt Q99683); experiment: biochemical; settings: read-out: % enzyme activity, 1 μM; Run 1, Run 2
[8] = molecular target: CK1G3 (Homo sapiens, UniProt Q9Y6M4); settings: 1 μM; Run 1, Run 2
[9] = molecular target: KSR1 (Homo sapiens, UniProt Q8IVT5); experiment: biochemical; settings: read-out: % enzyme activity, 1 μM; Run 1, Run 2
[10] = molecular target: TYRO3/SKY (Homo sapiens, UniProt Q06418); settings: 1 μM; Run 1, Run 2
[11] = molecular target: MELK (Homo sapiens, UniProt Q14680); experiment: biochemical; settings: read-out: % enzyme activity, 1 μM; Run 1, Run 2
[12] = molecular target: Aurora C (Homo sapiens, UniProt Q9UQB9); settings: 1 μM; Run 1, Run 2
[13] = molecular target: PIM2 (Homo sapiens, UniProt Q9P1W9); experiment: biochemical; settings: read-out: % enzyme activity, 1 μM; Run 1, Run 2
[14] = molecular target: DYRK3 (Homo sapiens, UniProt O43781); settings: 1 μM; Run 1, Run 2
[15] = molecular target: CDC7/DBF4 (Homo sapiens, UniProt O00311); experiment: biochemical; settings: read-out: % enzyme activity, 1 μM; Run 1, Run 2
[16] = molecular target: PKCzeta (Homo sapiens, UniProt Q05513); settings: 1 μM; Run 1, Run 2
[17] = molecular target: PKCd (Homo sapiens, UniProt Q05655); settings: 1 μM; Run 1, Run 2
[18] = molecular target: P38b/MAPK11 (Homo sapiens, UniProt Q15759); settings: 1 μM; Run 1, Run 2
[19] = molecular target: MSSK1/STK23 (Homo sapiens, UniProt Q9UPE1); settings: 1 μM; Run 1, Run 2
[20] = molecular target: IRAK1 (Homo sapiens, UniProt P51617); experiment: biochemical; settings: read-out: % enzyme activity, 1 μM; Run 1, Run 2
[21] = molecular target: ARK5/NUAK1 (Homo sapiens, UniProt O60285); experiment: biochemical; settings: read-out: % enzyme activity, 1 μM; Run 1, Run 2
[22] = molecular target: CK1a1 (Homo sapiens, UniProt P48729); experiment: biochemical; settings: read-out: % enzyme activity, 1 μM; Run 1, Run 2
[23] = molecular target: GRK6 (Homo sapiens, UniProt P43250); settings: 1 μM; Run 1, Run 2
[24] = molecular target: T1, RET (Homo sapiens, UniProt P07949); experiment: biochemical; settings: read-out: % enzyme activity, 1 μM; Run 1, Run 2
[25] = molecular target: MRCKa/CDC42BPA (Homo sapiens, UniProt Q5VT25); experiment: biochemical; settings: read-out: % enzyme activity, 1 μM; Run 1, Run 2
[26] = molecular target: CDK2/cyclin E2 (Homo sapiens, UniProt P24941); experiment: biochemical; settings: read-out: % enzyme activity, 1 μM; Run 1, Run 2
[27] = molecular target: ERN1/IRE1 (Homo sapiens, UniProt O75460); settings: 1 μM; Run 1, Run 2
[28] = molecular target: T1, RET; settings: 1 μM; Run 1, Run 2
[29] = molecular target: CDK6/cyclin D1 (Homo sapiens, UniProt Q00534); experiment: biochemical; settings: read-out: % enzyme activity, 1 μM; Run 1, Run 2
[30] = molecular target: IKKb/IKBKB (Homo sapiens, UniProt O14920); experiment: biochemical; settings: read-out: % enzyme activity, 1 μM; Run 1, Run 2
[31] = molecular target: T2, TXK (Homo sapiens, UniProt P42681); settings: 1 μM; Run 1, Run 2
[32] = molecular target: TRKC (Homo sapiens, UniProt Q16288); settings: 1 μM; Run 1, Run 2
[33] = molecular target: T2, TXK; experiment: biochemical; settings: read-out: % enzyme activity, 1 μM; Run 1, Run 2
[34] = molecular target: SYK (Homo sapiens, UniProt P43405); settings: 1 μM; Run 1, Run 2
[35] = molecular target: MKK6 (Homo sapiens, UniProt P52564); settings: 1 μM; Run 1, Run 2
[36] = molecular target: LYN B (Homo sapiens, UniProt P07948); experiment: biochemical; settings: read-out: % enzyme activity, 1 μM; Run 1, Run 2
[37] = molecular target: LKB1 (Homo sapiens, UniProt Q15831); settings: 1 μM; Run 1, Run 2
[38] = molecular target: RAF1 (Homo sapiens, UniProt P04049); experiment: biochemical; settings: read-out: % enzyme activity, 1 μM; Run 1, Run 2
[39] = molecular target: T3, LRRK2 (Homo sapiens, UniProt Q5S007); experiment: biochemical; settings: read-out: % enzyme activity, 1 μM; Run 1, Run 2
[40] = molecular target: T3, LRRK2; settings: 1 μM; Run 1, Run 2
[41] = molecular target: ERK2/MAPK1 (Homo sapiens, UniProt P28482); experiment: biochemical; settings: read-out: % enzyme activity, 1 μM; Run 1, Run 2
[42] = molecular target: TAOK3/JIK (Homo sapiens, UniProt Q9H2K8); experiment: biochemical; settings: read-out: % enzyme activity, 1 μM; Run 1, Run 2
[43] = molecular target: EPHA6 (Homo sapiens, UniProt Q9UF33); settings: 1 μM; Run 1, Run 2

Q: COc1cc(-c2cncc(-c3ccc(N4CCN(C(C)C)CC4)cc3)c2C)cc(F)c1C(N)=O [Compound 26b, 2-Fluoro-4-(5-(4-(4-isopropylpiperazin-1-yl)phenyl)-4-methylpyridin-3-yl)-6-methoxybenzamide] was tested. Which remaining activity at 1 µM [1] did it give?
A: 96.1%

Q: And the “% enzyme activity” value [2]?
A: 119.86%

Q: And the remaining activity at 1 µM [3]?
A: 107%

Q: And the “% enzyme activity” value [4]?
A: 71.66%

Q: What about the remaining activity at 1 µM [5] of the same compound?
A: 102%

Q: And the “% enzyme activity” value [6]?
A: 87.08%

Q: And the remaining activity at 1 µM [7]?
A: 101%

Q: What about the “% enzyme activity” value [8] of the same compound?
A: 69.81%

Q: What about the remaining activity at 1 µM [9] of the same compound?
A: 93.6%

Q: And the “% enzyme activity” value [10]?
A: 95.17%

Q: And the remaining activity at 1 µM [11]?
A: 99.6%

Q: And the “% enzyme activity” value [12]?
A: 98.40%

Q: And the remaining activity at 1 µM [13]?
A: 98%

Q: What about the “% enzyme activity” value [14] of the same compound?
A: 92.56%

Q: And the remaining activity at 1 µM [15]?
A: 98.1%

Q: What about the “% enzyme activity” value [16] of the same compound?
A: 91.33%

Q: And the “% enzyme activity” value [17]?
A: 92.22%

Q: What about the “% enzyme activity” value [18] of the same compound?
A: 99.99%

Q: What about the “% enzyme activity” value [19] of the same compound?
A: 91.96%

Q: What about the remaining activity at 1 µM [20] of the same compound?
A: 101%

Q: What about the remaining activity at 1 µM [21] of the same compound?
A: 92.5%

Q: What about the remaining activity at 1 µM [22] of the same compound?
A: 99.3%

Q: And the “% enzyme activity” value [23]?
A: 103.22%

Q: What about the remaining activity at 1 µM [24] of the same compound?
A: 92.5%

Q: And the remaining activity at 1 µM [25]?
A: 104%

Q: What about the remaining activity at 1 µM [26] of the same compound?
A: 105%

Q: What about the “% enzyme activity” value [27] of the same compound?
A: 96.56%

Q: And the “% enzyme activity” value [28]?
A: 89.18%

Q: What about the remaining activity at 1 µM [29] of the same compound?
A: 101%

Q: What about the remaining activity at 1 µM [30] of the same compound?
A: 109%

Q: What about the “% enzyme activity” value [31] of the same compound?
A: 100.24%

Q: What about the “% enzyme activity” value [32] of the same compound?
A: 117.99%

Q: And the remaining activity at 1 µM [33]?
A: 104%

Q: And the “% enzyme activity” value [34]?
A: 99.79%

Q: What about the “% enzyme activity” value [35] of the same compound?
A: 64.71%

Q: What about the remaining activity at 1 µM [36] of the same compound?
A: 95.1%

Q: What about the “% enzyme activity” value [37] of the same compound?
A: 92.06%

Q: And the remaining activity at 1 µM [38]?
A: 85%

Q: And the remaining activity at 1 µM [39]?
A: 74.1%

Q: What about the “% enzyme activity” value [40] of the same compound?
A: 73.65%

Q: What about the remaining activity at 1 µM [41] of the same compound?
A: 89.3%

Q: What about the remaining activity at 1 µM [42] of the same compound?
A: 68.9%

Q: And the “% enzyme activity” value [43]?
A: 101.59%
